Results are given in words; binding and its absence hold for the method and conditions named. Binding seen in cells or lysates may run through a third protein. Binding calls can cover weak binding; strength is not graded here.
Columns and labels:
BirA-SH3TC2 [1] = target: T1, BirA-SH3TC2 (UniProt Q8TF17); assay: co-IP; lysates of RPE cells stably expressing BirA alone or BirA-SH3TC2 (20 mM HEPES pH 7.4, 150 mM NaCl, 1 mM EDTA, 1% Ipegal); anti-SH3TC2 antibody (2058) overnight at 4 °C, protein A Sepharose; immunoblot
T1 sequence: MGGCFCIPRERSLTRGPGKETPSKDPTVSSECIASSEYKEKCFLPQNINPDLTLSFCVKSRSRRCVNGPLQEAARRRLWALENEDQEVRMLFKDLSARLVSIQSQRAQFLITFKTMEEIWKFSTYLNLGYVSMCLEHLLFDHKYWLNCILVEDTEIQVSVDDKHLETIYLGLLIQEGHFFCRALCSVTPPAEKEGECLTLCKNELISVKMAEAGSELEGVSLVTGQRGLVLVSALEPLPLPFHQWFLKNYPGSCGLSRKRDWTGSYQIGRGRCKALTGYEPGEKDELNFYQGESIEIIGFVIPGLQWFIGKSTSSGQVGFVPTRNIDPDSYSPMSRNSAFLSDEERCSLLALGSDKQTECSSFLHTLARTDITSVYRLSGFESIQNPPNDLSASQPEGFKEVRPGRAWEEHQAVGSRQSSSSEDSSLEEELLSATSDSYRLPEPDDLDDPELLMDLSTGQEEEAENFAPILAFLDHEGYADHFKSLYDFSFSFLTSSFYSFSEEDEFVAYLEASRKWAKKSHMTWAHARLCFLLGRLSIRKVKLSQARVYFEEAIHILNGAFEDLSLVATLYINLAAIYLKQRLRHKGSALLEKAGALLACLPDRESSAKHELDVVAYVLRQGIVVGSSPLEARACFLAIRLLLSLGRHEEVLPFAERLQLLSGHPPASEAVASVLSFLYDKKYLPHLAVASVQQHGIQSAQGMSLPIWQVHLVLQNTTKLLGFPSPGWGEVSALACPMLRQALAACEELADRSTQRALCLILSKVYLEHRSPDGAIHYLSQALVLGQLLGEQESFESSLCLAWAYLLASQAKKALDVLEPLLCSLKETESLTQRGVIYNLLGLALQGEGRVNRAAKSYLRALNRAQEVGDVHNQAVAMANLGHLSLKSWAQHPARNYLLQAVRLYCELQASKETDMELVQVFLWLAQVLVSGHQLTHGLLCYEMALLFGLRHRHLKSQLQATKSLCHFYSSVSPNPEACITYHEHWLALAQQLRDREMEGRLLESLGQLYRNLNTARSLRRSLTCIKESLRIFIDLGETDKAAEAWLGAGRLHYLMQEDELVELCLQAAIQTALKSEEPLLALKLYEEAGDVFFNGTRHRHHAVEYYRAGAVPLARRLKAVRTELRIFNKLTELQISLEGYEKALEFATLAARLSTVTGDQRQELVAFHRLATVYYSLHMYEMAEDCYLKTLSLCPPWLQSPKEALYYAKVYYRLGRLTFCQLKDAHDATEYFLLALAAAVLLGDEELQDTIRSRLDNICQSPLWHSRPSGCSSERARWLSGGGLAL

BirA-SH3TC2 [2] = target: T1, BirA-SH3TC2; assay: proximity ligation; Duolink PLA on RPE cells stably expressing SH3TC2, fixed with 4% PFA; pairs of primary antibodies (anti-SH3TC2, anti-integrin-α6, anti-LAMP1)

- binding (BirA-SH3TC2 [1]): binds
- binding (BirA-SH3TC2 [2]): binds
Substance: integrin-α6 (receptor)

Reference: publication PMC4879868
